Results: paper PMC6189217
These are yes or no findings as the source states them, for the method shown. In cells and extracts the contact can be indirect. Some results given as binding are weak or reduced against the parent protein; the word gives no strength.

Amino acid sequences for entries named in this document (tags omitted). A change or cut given only in a name is not applied to a line headed by its entry.
UniProt Q14258: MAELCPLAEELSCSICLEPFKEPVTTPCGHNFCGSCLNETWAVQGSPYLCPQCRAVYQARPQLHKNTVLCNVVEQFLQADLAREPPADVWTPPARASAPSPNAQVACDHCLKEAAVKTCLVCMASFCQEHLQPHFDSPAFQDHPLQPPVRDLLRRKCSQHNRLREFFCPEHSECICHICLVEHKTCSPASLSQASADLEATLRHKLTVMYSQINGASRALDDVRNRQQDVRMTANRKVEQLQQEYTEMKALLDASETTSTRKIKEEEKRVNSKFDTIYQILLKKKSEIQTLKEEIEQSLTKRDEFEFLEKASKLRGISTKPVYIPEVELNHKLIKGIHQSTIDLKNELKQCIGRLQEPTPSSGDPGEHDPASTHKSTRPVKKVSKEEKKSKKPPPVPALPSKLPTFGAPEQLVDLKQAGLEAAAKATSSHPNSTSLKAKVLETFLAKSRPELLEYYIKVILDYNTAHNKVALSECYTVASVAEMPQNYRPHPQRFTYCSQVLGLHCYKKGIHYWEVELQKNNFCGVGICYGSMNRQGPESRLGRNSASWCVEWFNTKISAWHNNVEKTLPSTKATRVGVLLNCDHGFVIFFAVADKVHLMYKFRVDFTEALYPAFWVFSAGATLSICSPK

T1: PPARγ, endogenous in 3T3-L1 adipocytes (mouse (endogenous in 3T3-L1)), P37238
T1 chain: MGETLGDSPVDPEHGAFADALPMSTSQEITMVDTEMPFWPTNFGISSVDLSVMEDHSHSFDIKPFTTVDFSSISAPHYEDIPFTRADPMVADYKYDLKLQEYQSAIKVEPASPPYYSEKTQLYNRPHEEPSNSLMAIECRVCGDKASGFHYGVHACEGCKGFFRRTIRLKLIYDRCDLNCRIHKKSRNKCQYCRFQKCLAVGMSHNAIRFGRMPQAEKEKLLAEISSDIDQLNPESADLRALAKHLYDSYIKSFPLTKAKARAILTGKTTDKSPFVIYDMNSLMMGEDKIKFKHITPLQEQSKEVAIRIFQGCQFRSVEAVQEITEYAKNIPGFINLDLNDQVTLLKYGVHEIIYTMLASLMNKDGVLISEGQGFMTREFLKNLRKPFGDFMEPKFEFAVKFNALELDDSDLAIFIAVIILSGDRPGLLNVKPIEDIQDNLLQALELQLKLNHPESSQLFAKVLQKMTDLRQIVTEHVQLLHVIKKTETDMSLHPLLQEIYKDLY


What was measured:
[1] = target: HA-tagged TRIM25^WT expressed in HEK-293 cells (human) (UniProt Q14258); assay: co-IP; HEK-293 cells expressing PPARγ, TRIM25 or their mutants; total cell lysates incubated with anti-HA antibody at 4 °C; western blotting
[2] = target: HA-tagged TRIM25^CS (C50S/C53S), E3 ligase-defective mutant, expressed in HEK-293 cells (human) (UniProt Q14258); assay: as above
[3] = target: T1, PPARγ, endogenous in 3T3-L1 adipocytes …; assay: co-IP; endogenous proteins; 3T3-L1 adipocytes lysed with binding buffer, lysates incubated with anti-PPARγ or TRIM25 antibodies, western blotting; conditions: remark: other sources report otherwise

binding [1] | binding [2] | binding [3] | Molecule
binds | binds | – | PPARγ expressed in HEK-293 cells (FLAG-epitope tagged WT PPARγ vector) (from UniProt P37238 1-505)
– | – | binds | TRIM25, endogenous in 3T3-L1 adipocytes, Q61510 1-634 (protein) MAELNPLAEELSCSVCLELFKEPVTTPCGHNFCMSCLDETWVVQGPPYRCPQCRKVYQVRPQLQKNTVMCAVVEQFLQAEQARTPVDDWTPPARFSASSAATQVACDHCLTEIAVKTCLVCMASFCQEHLRPHFDSPAFQDHPLQSPIRDLLRRKCTQHNRLRELFCPEHGECICHICLVEHKTCSPTTLSQASADLEYKLRNKLTIMHSHINGATKALEDVRSKQQCVQDSMKRKMEQLRQEYMEMKAVIDAAETSSLRKLKEEEKRVYGKFDTIYQVLVKKKSEMQKLKAEVELIMDKGDEFEFLEKAAKLQGESTKPVYIPKIDLDHDLIMGIYQGAADLKSELKHSIKKLQKKSEEHNGSGNKGDQTQSTFKPVQPSKKTIQEKKTKKTPVAPGPPSHFSPNKLPTFGAPGQSLDSKATSPDAAPKASAAQPDSVGVKAKVLENFLTKSRTELLEYFVKVIFDYNTAHNKVSLSNKYTTASVSDGLQHYRSHPQRFTYCSQVLGLHCYKNGIHYWEVELQKNNFCGVGICYGSMERQGPESRLGRNPNSWCVEWFNNKISAWHNNVEKTLPSTKATRVGVLLNCDHGFVIFFAVTEKVHLMYKFKVDFTEALYPAFWVFSAGTTLSICSK
